Tested on: B16 (melanoma) tumor cells
Assay: MTT cell viability assay
Type: cell-based, Mouse
Details: for TI (therapeutic index) 48 h: ratio IC50 BJ / IC50 B16, 48 h, where no toxic effect, two times the highest tested concentration used
Method: The cytotoxicity of ligand and copper(II) complexes was tested on normal BJ cell as well as on B16 (melanoma) tumor cells, which were grown for 48 h in culture medium containing the tested complexes in 0–25 μg/mL concentration range.
Human fibroblast cells (BJ-ATCC CRL-2522, Manassas, VA, USA) were grown in minimal essential medium (MEM) supplemented with 2 mM L-Glutamine, 10% fetal calf serum (FCS), 100 units/mL of penicillin and 100 µg/mL of streptomycin at 37 °C in a humidified incubator under an atmosphere containing 5% CO2. Mouse melanoma cells (B16-ATCC CRL-6475, Manassas, VA, USA) were grown in DMEM (Dulbecco’s Modified Eagle Medium) supplemented with similar reagents as MEM. All cell cultivation media and reagents were purchased from Biochrom AG (Berlin, Germany) and Sigma-Aldrich (Darmstadt, Germany).
Cell viability was evaluated using 3-(4,5-dimethylthiazol-2-yl)-2,5-diphenyltetrazolium bromide (MTT) assay, as described previously. First, the cells were seeded in 96-well plates (20,000 cells/well) and cultured for 24 h in medium. After overnight incubation, the medium was changed and the investigated sample in concentration varying from […] was added for 24 h. The negative control was represented by cells cultivated in medium without the investigated compounds. Following incubation, the medium was changed and the MTT solution was added to each well to a final concentration of 1 mg/mL and incubated for additional 4 h, at 37 °C. Finally, the medium was collected and DMSO was used to dissolve the insoluble formazan product. The absorbance of the samples was recorded at 570 nm using a plate reader Mithras 940 (Berthold). The data were corrected for the background and the percentage of viable cells was obtained using the equation:Cell viability = [(A570 of treated cells)/(A570 of untreated cells)] × 100%
The half-maximal inhibitory concentration (IC50) was determined by fitting the data with a logistical sigmoidal equation using the software Origin 8.1 from Microcal Inc. (Los Angeles, CA, USA).

SMILES | TI (therapeutic index) 48 h | TI (therapeutic index) 24 h (ratio IC50 BJ / IC50 B16, 24 h)
Cc1cc(-c2ccccc2)nc2ncnn12.[Cu+2].[O-][Cl+3]([O-])([O-])[O-].[O-][Cl+3]([O-])([O-])[O-].c1ccc(-c2ccccn2)nc1.c1ccc(-c2ccccn2)nc1 [(1), [Cu(bpy)2(pmtp)](ClO4)2] | 3.23 | 
Cc1cc(-c2ccccc2)nc2ncnn12.[Cu+2].[O-][Cl+3]([O-])([O-])[O-].[O-][Cl+3]([O-])([O-])[O-].c1cnc2c(c1)ccc1cccnc12.c1cnc2c(c1)ccc1cccnc12 [(2), [Cu(phen)2(pmtp)](ClO4)2] | 0.88 | 0.95
